Reference: patent publication US10322097B2, “Treatment of subjects with multidrug-resistant cancer” (priority 2015, dated 2019)

Assays:
Format in all cases: cell-based
[1] = system: HCT116 p53+/+ colon cancer cells; assay: MTT cytotoxicity assay, HCT116 p53+/+; conditions: Homo sapiens, HCT-116, 72 h, 3 days
Experimental: (§1) Cell cultures and cytotoxicity assays have been used. Celastrol was dissolved in DMSO at a final concentration of 100 mmol/L and stored at −20° C. Cytotoxicity was assessed using the 3-(4,5-dimethylthiazol-2-yl)-2,5-diphenyltetrazolium bromide assay. 4000 cells from HCT116 p53^+/+ or p53^−/− colon cancer cells and DLD-1 Bax-Bak^+/+ or Bax-Bak^−/− colon cancer cells were seeded on 96-well plates per well. […] Subsequently, 10 μL of MTT reagents were added to each well and incubated at 37° C. for 4 hours followed by the addition of 100 μL solubilization buffer (10% SDS in 0.01 mol/L HCl) and overnight incubation. […] The percentage of cell viability was calculated using the following formula: Cell viability (%)=Cells number treated/Cells number DMSO control×100. Data were obtained from three independent experiments.

[2] = system: DLD-1 Bax-Bak+/+ colon cancer cells; assay: MTT cytotoxicity assay, DLD-1 Bax-Bak+/+; conditions: Homo sapiens, DLD-1, 72 h, 3 days
Experimental: as §1

[3] = system: DLD-1 Bax-Bak-/- colon cancer cells; assay: MTT cytotoxicity assay, DLD-1 Bax-Bak-/-; conditions: Homo sapiens, DLD-1, 72 h, 3 days
Experimental: as §1

Molecule CN[C@@H]1C[C@H]2O[C@@](C)([C@@H]1OC)n1c3ccccc3c3c4c(c5c6ccccc6n2c5c31)C(=O)NC4 [Staurosporine, staurosporine] has an IC50 [1] of 3.69 nM, an IC50 [2] of 29.1 nM and an IC50 [3] of over 100 nM.
